Values of other authors, collected in patent US11077316B2, “Insertion devices and systems for production of emitted light internal to a medium and methods for their use” (Immunolight, LLC, priority 2016, dated 2021).
At least one compound was matched to its structure with a doubt left.

Settings: clinical studies, 652 nm light

Oc1cccc(-c2c3nc(c(-c4cccc(O)c4)c4ccc([nH]4)c(-c4cccc(O)c4)c4nc(c(-c5cccc(O)c5)c5ccc2[nH]5)CC4)C=C3)c1 [Foscan, Tetra (m-hydroxyphenyl) chlorin]
tissue effect: up to 10 mm
